One may read the AC50 as the concentration at which the activity in the assay is half-maximal.

Experimental findings from PubChem BioAssay AID493014 (National Center for Advancing Translational Sciences (NCATS), 2011) are described below.

The assay can be described thus: qHTS Assay to Find Inhibitors of Chronic Active B-Cell Receptor Signaling. Particulars: ABC-DLBCL IkBa-CBG/CBR reporter, luminescence ratio (green luciferase fused to IkBa over red control in TMD8 lymphoma cells), 4 h. Summed up:
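TMD8 ABC-DLBCL cells carrying doxycycline-inducible green luciferase fused to IkappaBalpha plus unfused red luciferase were exposed to compounds (up to 46 uM) for 4 hrs at 37C. Activity came from the overlap-corrected green/red luminescence ratio.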
Background: In qHTS, concentration-response curves come from the screen itself.

Where [1] appears, read: measured here: CBR red luminescence, cell number.
The mark [2] stands for this setting: measured here: IkBa-CBG green luminescence.

This is one part of the list. The main result of the screen is listed elsewhere. These columns were measured beside it and carry no call. The list favours compounds with an active or inconclusive main result. Words in brackets tell the shape of the fitted curve; partial curves, single points and poor fits give uncertain potencies.

Consider `Cc1cc(/C=C(\C#N)C(=O)Nc2ccccc2F)c(C)[nH]1`, for which the AC50 under setting [1] was 15.8 µM [falling, partial curve].
For the compound `CC(C)c1nnc(NC(=O)CSc2nc3ccccc3s2)s1`, the AC50 under setting [1] was 15.8 µM [rising, single point].
Regarding `Cn1cnc([N+](=O)[O-])c1S(=O)(=O)c1cccc(Cl)c1`, under setting [1], the AC50 was 25.9 µM [falling, single point].
For `CC(=O)NN1C(=O)/C(=C\c2ccc(Br)o2)SC1=S`, the AC50 under setting [1] was 7.31 µM [falling, partial curve].
As for `Cc1cc(C(=O)OC(C(=O)Nc2cccc(C(F)(F)F)c2)c2ccccc2)c(C)o1` (centres undefined), the AC50 under setting [2] was 23.1 µM [rising, partial curve, poor fit].
As for `COc1ccc(N)cc1-n1cnnn1`, the AC50 under setting [1] is 35.5 µM [falling, partial curve, poor fit].
In the case of `COc1cccc(-c2cc(C(=O)N3CCOCC3)no2)c1`, the AC50 under setting [1] was 10 µM [falling, partial curve].
On the same count and under the same terms, under `COc1ccc(N2CCN(c3nc4c(c(=O)n(C)c(=O)n4C)n3Cc3ccccc3)CC2)cc1` stands 0.00517 µM [rising, full curve, poor fit]; under `O=C1c2ccccc2CN1C(CO)Cc1ccccc1` (centres undefined), 20 µM [rising, single point].
Still for that read-out and setting: to `CC(C)/C=N\NC(=O)CCCCC(=O)N/N=C/C(C)C` belongs 8.2 µM [falling, partial curve, poor fit]; to `O=Cc1c(Sc2ccccn2)nc2ccccn2c1=O`, 20.6 µM [falling, single point]; to `Cc1cccn2c(CNCCCOc3cccnc3)c(C(=O)N3CCOCC3)nc12`, 11.2 µM [falling, single point].
Consider `COc1cccc(CNC(=O)C(=O)NCC2OCCCN2S(=O)(=O)c2cc(C)ccc2C)c1` (centres undefined), for which, under setting [1], the AC50 was 10 µM [falling, partial curve, poor fit].
Consider `CCC(C)Cn1c(S(=O)(=O)O)nc2ccccc21` (centres undefined), for which the AC50 under setting [1] is 6.51 µM [falling, single point].
On the same count and under the same terms, under `Brc1csc(/C=N/Nc2nc3ccccc3s2)c1` stands 9.2 µM [falling, partial curve]; under `Cc1cc(C)cc(OCc2ccc(C(=O)NC3CCOC3=O)o2)c1` (centres undefined), 35.5 µM [falling, single point].
The same measure, in the same setting: to `O=C(CCN1CCc2ccccc2CC1)c1ccc2c(c1)OCCO2` belongs 0.116 µM [falling, full curve, poor fit].
Consider `CC(C)OCCCN1C(=O)c2[nH]nc(-c3ccccc3O)c2C1c1cccc(Cl)c1` (centres undefined), for which the AC50 under setting [1] is 18.4 µM [falling, partial curve].
Regarding `CC(C)COc1ccc(C(=O)Nc2cc(S(=O)(=O)N3CCOCC3)ccc2N2CCCC2)cc1`, the AC50 was 14.6 µM [rising, partial curve, poor fit] under setting [1] and 16.4 µM [falling, partial curve, poor fit] under setting [2].
Consider `CC(/C=N/Nc1ccc2nncn2n1)=C\c1ccccc1`, for which, under setting [1], the AC50 is 0.708 µM [rising, partial curve].
For `Cc1cc2ccccn2c1C(=O)c1ccc(NN)c([N+](=O)[O-])c1`, the AC50 under setting [1] was 7.94 µM [falling, partial curve].
With `NC1=NN(c2cccc(C(=O)O)c2)C(=O)C1`, the AC50 under setting [1] was 11.6 µM [falling, partial curve].
As for `COc1ccc(-c2[nH]ncc2CN2CCSCC2)c(OC)c1`, the AC50 under setting [1] was 35.5 µM [rising, single point].
For the compound `c1ccc(-c2nnc3n2N=C(c2ccc4c(c2)OCO4)CS3)nc1`, the half-maximal activity concentration (AC50) under setting [1] is 7.08 µM [falling, partial curve, poor fit].
Same read-out and setting: under `CCOC(=O)C1=NN(c2ccc(Cl)cc2)C(=O)C1` stands 6.31 µM [rising, partial curve, poor fit]; under `Cc1[nH][nH]c(=O)c1C(c1ccc(-c2ccc(Cl)cc2)o1)c1c(C)[nH][nH]c1=O`, 10.3 µM [falling, partial curve, poor fit]; under `CN(c1ccccc1)S(=O)(=O)c1ccc(C(=O)NCCc2ccccc2)cc1`, 3.16 µM [rising, single point].
As to `COc1ccc2c(c1)OC[C@H]1[C@H]2N2C(=O)c3cc(F)ccc3NC(=O)[C@@]2(C)[C@H]1c1ccccc1`, the AC50 under setting [1] was 6.51 µM [falling, partial curve, poor fit] and the concentration at half-maximal activity (AC50) under setting [2] is 7.31 µM [rising, partial curve, poor fit].
Regarding `O=C(Nc1nnc(C2CCCCC2)s1)C1CC(=O)N(c2ccc(F)cc2)C1` (centres undefined), under setting [1], the AC50 was 1.58 µM [rising, partial curve, poor fit].
Take `Cc1cccc(NC(=O)c2ccc(-c3ccccc3[N+](=O)[O-])o2)c1`: the AC50 under setting [1] is 22.4 µM [falling, single point].
For `CCC(C)(C)NC(=O)Cc1ccccc1OC`, the AC50 under setting [1] was 29.1 µM [rising, single point].
`CCCN(CCC)CC(O)Cn1cc(/C=C/C(=O)c2cccs2)c2ccccc21` (centres undefined): under setting [1], the AC50 is 25.9 µM [falling, single point].
Consider `O=[N+]([O-])c1ccc2[nH]cc(S(=O)(=O)N3CCN(c4cccc(Cl)c4)CC3)c2c1`, for which, under setting [1], the concentration at half-maximal activity (AC50) was 17.8 µM [falling, single point].
`COc1ccc(-c2cccc([C@H]3[C@@H]4C=CCC[C@@]4(C)C(=O)N3Cc3ccccc3)c2)cc1`: under setting [1], the AC50 is 14.1 µM [falling, single point].
In the case of `COc1ccc(Cl)cc1NC(=O)C1CC(c2c(F)cccc2Cl)=NO1` (centres undefined), the AC50 under setting [1] is 14.1 µM [falling, single point].
Turning to `CC(C)(C)c1cc(NC(=O)c2cc(F)c(F)c(F)c2F)no1`, the AC50 under setting [1] was 1.03 µM [falling, full curve].
For `COc1ccc(C(=O)C(C)OC(=O)CN2C(=O)c3ccccc3C2=O)cc1` (centres undefined), the AC50 under setting [1] is 5.8 µM [rising, full curve].
On the same count and under the same terms, under `CCCS(=O)(=O)NCCc1csc2nc(-c3ccc(OC)cc3)nn12` stands 7.08 µM [rising, partial curve, poor fit].
Consider `CCOc1c(Cl)cc(CNCC(C)C)cc1OC`, for which the AC50 runs as follows: under setting [1], 18.4 µM [rising, partial curve]; under setting [2], 13 µM [falling, partial curve].
Regarding `Cc1ccc(/C=N/NC(=O)c2cccs2)s1`, the AC50 under setting [1] was 16.4 µM [falling, partial curve, poor fit].
With `Cc1ccc(NC(=O)CN2C(=O)NC(C)(C3CC3)C2=O)c([N+](=O)[O-])c1` (centres undefined), under setting [1], the AC50 is 20.6 µM [rising, single point].
As for `COc1ccc(-c2cc(C(=O)N3CC4(C)CC3CC(C)(C)C4)no2)cc1OC` (centres undefined), the concentration at half-maximal activity (AC50) under setting [1] is 35.5 µM [falling, single point].
As for `CCn1c(NC(=O)c2ccc(C)cc2)c2ccccc2nc1=O`, the AC50 under setting [1] is 2.59 µM [rising, partial curve, poor fit].
`COc1ccccc1N(CC(=O)NCCSCc1ccc(Cl)cc1)S(C)(=O)=O`: the AC50 under setting [1] was 22.4 µM [falling, single point].
In the case of `O=C1/C(=C/Nc2ccc3c(c2)OCO3)CCc2ccccc21`, the AC50 under setting [1] is 5.17 µM [falling, partial curve].
`Oc1ccc(-c2csc(-c3cccnc3)n2)cc1O`: the AC50 under setting [1] was 15.8 µM [falling, single point].
Still for that read-out and setting: to `CCOC(=O)c1c(NC(=O)c2ccc(Cl)cc2)csc1C` belongs 11.6 µM [falling, single point].
On the same count and under the same terms, under `O=C(CSc1ccc2ccccc2c1)Nc1ccncc1` stands 0.92 µM [rising, full curve]; under `CCOC(=O)c1sc(NC(=O)c2cccnc2)nc1C`, 23.1 µM [falling, partial curve, poor fit].
For `O=C(COC(=O)c1ccccc1Br)NCCC1=CCCCC1`, the AC50 under setting [1] was 1.41 µM [rising, full curve, poor fit].
Take `O=C(Nc1cc(Cl)cc(Cl)c1)C1CCC(=O)N1Cc1ccccc1Cl` (centres undefined): the AC50 under setting [1] is 25.9 µM [falling, single point].
Take `CC(C)Cc1nnc(NC(=O)C2CCN(C(=O)c3ccc(Cl)cc3)CC2)s1`: the AC50 under setting [1] was 3.66 µM [rising, partial curve].
As for `S=C(NCC1CCCCC1)Nc1ccc(Oc2ccccc2)cc1`, the AC50 under setting [1] was 16.4 µM [falling, single point].
Consider `COc1cc(S(=O)(=O)N2CCOCC2)ccc1NC(=O)CSc1nnc(N)s1`, for which the AC50 under setting [1] is 35.5 µM [rising, single point].
As for `COc1ccc(OC)c(/C=C/C(=O)c2ccc3c(c2)OCCO3)c1`, the AC50 under setting [1] was 17.8 µM [falling, single point].
As for `Cn1c(-c2sc3ccccc3c2Cl)n[nH]c1=S`, the AC50 under setting [1] is 20.6 µM [rising, single point].
Same read-out and setting: under `O=C(NC1CCCCC1)c1cccc2c1C(=O)c1ccc(N3CCCC3)cc1S2(=O)=O` stands 23.1 µM [falling, single point]; under `CC(C)(C)C(=O)Nc1sc(-c2ccccc2)cc1C(=O)O`, 35.5 µM [falling, single point].
Regarding `COc1ccccc1/C(C)=N/NC(=S)NCc1ccccc1`, the AC50 under setting [1] was 35.5 µM [rising, single point] and the AC50 under setting [2] is 31.6 µM [falling, single point].
As to `Cc1ccccc1-n1c(=O)n(Cc2ccccc2)c(=O)c2[nH]cnc21`, the concentration at half-maximal activity (AC50) runs as follows: under setting [1], 11.2 µM [rising, partial curve, poor fit]; under setting [2], 2 µM [falling, partial curve, poor fit].
In the case of `Cc1cc(-c2ccccc2)n2ncc(-c3ccccc3)c2n1`, under setting [1], the AC50 was 23.1 µM [falling, partial curve].
`O=C(c1cc2cc([N+](=O)[O-])ccc2oc1=O)N1CCN(c2ncccn2)CC1`: under setting [1], the AC50 was 3.66 µM [rising, partial curve, poor fit].
Consider `C/C(CCc1ccc2c(c1)OCO2)=N\NC(=S)NC(C)C`, for which the AC50 was 31.6 µM [falling, single point] under setting [1] and 25.1 µM [falling, single point] under setting [2].
